“Also recorded” adds a separate entry of the source.
Test system: Male Wistar rats
Experiment: step through passive avoidance learning
Assay type: in vivo, rat
Conditions: 5 mg/kg ip on Day 1; FIG. 2
Method: Male Wistar rats weighing 200-220 g were used. The animals were obtained from Charles River Co. They were kept in a room with normal 12-12 h light dark cycle (light on: 06:00) at a relative humidity of 60±10%.
The experiment was performed in a five-channel “step through”-type passive avoidance learning apparatus. The equipment consisted of two adjacent Plexi-glass boxes of 20×20×16 cm. One of them was made of regular transparent Plexi-glass and the other one was made of black, non-transparent Plexi-glass. The boxes were connected with a 7.5×8 cm passage way, equipped with a computer-controlled guillotine-door. The passage of the rats through the door was detected by infrared photocells arranged in two parallel lines in the opening of the passage way. The door was automatically closed when the animals passed through. The dark compartment was equipped with stainless steel grid floor through which electric foot shocks could be delivered to the animals. […]
The individually numbered animals were placed into the light compartment of the equipment. […] Step through latency was automatically determined. […]
After 24 h the animals were placed again in the light compartment of the test apparatus and step-through latency was measured as described at Acquisition day, except that no foot shock was applied to the animals in any group on the second day. […]

SMILES: CN1C(=O)CN=C(c2ccccc2)c2cc(Cl)ccc21 [diazepam, reference compound]
- retention from long term memory: deleterious effect; also recorded: significantly damaged

— patent publication US20040171696A1, “Pharmaceutical composition for the treatment of the decline and/or damage of cognitive functions” (priority 2001, published 2004)
